Values quoted from earlier work as cited in publication PMC10476265, “Optimized LC-MS/MS Method for the Detection of ppCCK(21–44): A Surrogate to Monitor Human Cholecystokinin Secretion” (Journal of Proteome Research, 2023).

Details: cited from earlier work

B1: cholecystokinin (peptide, UniProt P06307 21-115, looked up)
Cholecystokinin: QPVPPADPAGSGLQRAEEAPRRQLRVSQRTDGESRAHLGALLARYIQQARKAPSGRMSIVKNLQNLDPSHRISDRDYMGWMDFGRRSAEEYEYPS
modifications: Cholecystokinin
resting CCK level in plasma (200 mL liquid meal test, in-house radioimmunoassay against CCK C-terminus): ~1 pM
CCK level in plasma at 30 min (30 min after 200 mL liquid meal, radioimmunoassay): ~3 pM
transient peak CCK level in plasma (reached 8–10 min after meal ingestion, 200 mL liquid meal, radioimmunoassay): ~6 pM
